Laboratory results as given in publication PMC8184754.
Results are given in words; binding and its absence hold for the method and conditions named. Binding seen in cells or lysates may run through a third protein. Some entries that bind do so weakly or less than the wild type.

Sequences of proteins named here, by UniProt entry; tags and fusion partners are left off.
UniProt Q8BWG8: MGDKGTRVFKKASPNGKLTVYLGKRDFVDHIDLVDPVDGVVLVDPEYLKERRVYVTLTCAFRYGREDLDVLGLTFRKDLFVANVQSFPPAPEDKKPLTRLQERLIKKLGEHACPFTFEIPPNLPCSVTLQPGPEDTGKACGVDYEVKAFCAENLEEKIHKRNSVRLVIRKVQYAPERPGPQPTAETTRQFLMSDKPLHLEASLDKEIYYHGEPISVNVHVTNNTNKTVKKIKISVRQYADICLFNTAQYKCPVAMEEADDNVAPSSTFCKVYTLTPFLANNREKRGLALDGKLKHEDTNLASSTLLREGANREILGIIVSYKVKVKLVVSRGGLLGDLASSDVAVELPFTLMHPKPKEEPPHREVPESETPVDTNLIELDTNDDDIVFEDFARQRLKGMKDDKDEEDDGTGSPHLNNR
UniProt Q91YI4: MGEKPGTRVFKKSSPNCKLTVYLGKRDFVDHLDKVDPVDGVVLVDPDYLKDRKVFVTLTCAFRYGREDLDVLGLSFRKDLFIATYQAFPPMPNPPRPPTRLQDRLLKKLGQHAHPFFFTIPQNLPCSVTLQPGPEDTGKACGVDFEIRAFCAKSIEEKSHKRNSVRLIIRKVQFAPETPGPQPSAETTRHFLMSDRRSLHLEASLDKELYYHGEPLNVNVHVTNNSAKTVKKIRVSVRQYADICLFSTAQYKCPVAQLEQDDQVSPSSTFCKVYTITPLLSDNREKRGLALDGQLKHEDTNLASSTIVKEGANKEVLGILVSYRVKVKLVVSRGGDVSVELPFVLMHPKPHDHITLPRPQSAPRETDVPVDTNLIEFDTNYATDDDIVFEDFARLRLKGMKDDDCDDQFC
UniProt Q04207: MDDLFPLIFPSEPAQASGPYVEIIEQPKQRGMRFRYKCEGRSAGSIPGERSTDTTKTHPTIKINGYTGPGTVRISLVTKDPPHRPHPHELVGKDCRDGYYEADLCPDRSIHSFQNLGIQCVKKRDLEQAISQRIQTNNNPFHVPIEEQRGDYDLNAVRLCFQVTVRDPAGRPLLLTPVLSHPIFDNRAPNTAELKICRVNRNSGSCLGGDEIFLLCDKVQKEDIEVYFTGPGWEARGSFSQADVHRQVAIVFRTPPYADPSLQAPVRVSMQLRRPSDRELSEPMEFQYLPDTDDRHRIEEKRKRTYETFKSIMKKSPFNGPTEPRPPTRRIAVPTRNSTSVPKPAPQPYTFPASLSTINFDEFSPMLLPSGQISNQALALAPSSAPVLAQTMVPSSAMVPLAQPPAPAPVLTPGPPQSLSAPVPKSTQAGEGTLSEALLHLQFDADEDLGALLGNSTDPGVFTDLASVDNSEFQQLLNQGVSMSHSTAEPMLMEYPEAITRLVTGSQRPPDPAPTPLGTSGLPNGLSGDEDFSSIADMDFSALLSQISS

What was measured:
[1] = target: β-arrestin 1 (mouse (endogenous in BMDMs)) (UniProt Q8BWG8); test: condition: only BMDMs without LPS plus IFN-γ stimulation; co-IP; lysates (RIPA buffer) of mouse BMDMs without LPS plus IFN-γ stimulation; immunoprecipitated with antibodies against ARRB1 or ARRB2, protein A/G beads, immunoblotting
[2] = target: β-arrestin 2 (mouse (endogenous in BMDMs)) (UniProt Q91YI4); test: as above
[3] = target: β-arrestin 1 (mouse (endogenous in BMDMs)) (UniProt Q8BWG8); test: co-IP; lysates (RIPA buffer) of mouse BMDMs stimulated with LPS plus IFN-γ for 1 h; immunoprecipitated with 2 μg of antibodies against ARRB1 or ARRB2 at 4 °C overnight, protein A/G beads, immunoblotting; also BMDMs of ARRB1 or ARRB2 knockout mice
[4] = target: β-arrestin 2 (mouse (endogenous in BMDMs)) (UniProt Q91YI4); test: as above

binding [1]: no binding
binding [2]: no binding
binding [3]: binds
binding [4]: binds
Substance: p65 (from UniProt Q04207 1-549)
